Source: paper PMC4840434, “The interactome of Streptococcus pneumoniae and its bacteriophages show highly specific patterns of interactions among bacteria and their phages” (Scientific Reports, 2016)
Results are given in words; binding and its absence hold for the method and conditions named. A result given as binding can be weak or reduced; the word gives no strength.

Molecular target: Cp-1 orf10, Connector protein (phage Cp-1 of S. pneumoniae)
Test: two-hybrid; yeast two-hybrid array screen: Cp-1 and Dp-1 baits in pDEST32 against 1,704 S. pneumoniae TIGR4 ORF preys in pDEST22; strength by 3-AT up to 50 mM (3AT score = 3ATmax - 3ATbackground)

B1: SP_1354, ribosomal protein L7/L12 (protein, UniProt P0A471 1-122)
chain: MALNIENIIAEIKEASILELNDLVKAIEEEFGVTAAAPVAVAAADAADAGAAKDSFDVELTSAGDKKVGVIKVVREITGLGLKEAKELVDGAPALVKEGVATAEAEEIKAKLEEAGASVTLK
  binding: binds

B2: SP_1881, glutamate racemase (protein, UniProt P63640 1-264)
chain: MDNRPIGFLDSGVGGLTVVRELMRQLPHEEIVYIGDSARAPYGPRPAEQIREYTWQLVNFLLTKDVKMIVIACNTATAVVWEEIKAQLDIPVLGVILPGASAAIKSSQGGKIGVIGTPMTVQSDIYRQKIHDLDPDLQVESLACPKFAPLVESGALSTSVTKKVVYETLRPLVGKVDSLILGCTHYPLLRPIIQNVMGPKVQLIDSGAECVRDISVLLNYFEINRGRDAGPLHHRFYTTASSQSFAQIGEEWLEKEIHVEHVEL
  binding: binds
